Measurements as given in publication PMC10290656.
Results are given in words; binding and its absence hold for the method and conditions named. In cells and extracts the contact can be indirect. Binding calls can cover weak binding; strength is not graded here. Where a sequence is shown, tags or fusion partners need not be part of it.

Key:
HA-tagged Nrf2 = target: T1, HA-tagged Nrf2 (UniProt Q60795); assay: co-IP; HEK293 cells transfected with FLAG-Trib1 (truncation mutants of Trib1) and HA-tagged Nrf2; immunoprecipitation with anti-HA
T1 sequence: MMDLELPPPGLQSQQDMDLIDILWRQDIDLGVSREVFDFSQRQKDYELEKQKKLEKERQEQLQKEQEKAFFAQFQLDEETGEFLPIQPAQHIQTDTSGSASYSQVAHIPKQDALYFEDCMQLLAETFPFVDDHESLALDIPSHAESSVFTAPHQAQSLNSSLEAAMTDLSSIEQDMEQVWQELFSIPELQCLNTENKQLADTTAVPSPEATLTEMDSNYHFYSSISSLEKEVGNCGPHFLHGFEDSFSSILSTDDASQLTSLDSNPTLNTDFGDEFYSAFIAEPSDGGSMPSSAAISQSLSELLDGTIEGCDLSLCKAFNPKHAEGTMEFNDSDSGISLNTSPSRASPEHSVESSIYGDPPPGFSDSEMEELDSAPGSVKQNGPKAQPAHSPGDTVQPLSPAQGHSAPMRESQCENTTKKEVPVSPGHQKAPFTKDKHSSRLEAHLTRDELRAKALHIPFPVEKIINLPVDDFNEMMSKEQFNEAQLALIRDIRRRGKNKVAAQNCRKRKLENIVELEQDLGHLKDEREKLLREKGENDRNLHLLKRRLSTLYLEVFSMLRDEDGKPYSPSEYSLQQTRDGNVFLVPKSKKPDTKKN

FLAG-tagged Trib1 = target: T2, FLAG-tagged Trib1 (UniProt Q8K4K4); assay: co-IP; HEK293 cells transfected with FLAG-Trib1 and HA-tagged Nrf2 (truncation mutants of Nrf2); immunoprecipitation with anti-FLAG
T2 sequence: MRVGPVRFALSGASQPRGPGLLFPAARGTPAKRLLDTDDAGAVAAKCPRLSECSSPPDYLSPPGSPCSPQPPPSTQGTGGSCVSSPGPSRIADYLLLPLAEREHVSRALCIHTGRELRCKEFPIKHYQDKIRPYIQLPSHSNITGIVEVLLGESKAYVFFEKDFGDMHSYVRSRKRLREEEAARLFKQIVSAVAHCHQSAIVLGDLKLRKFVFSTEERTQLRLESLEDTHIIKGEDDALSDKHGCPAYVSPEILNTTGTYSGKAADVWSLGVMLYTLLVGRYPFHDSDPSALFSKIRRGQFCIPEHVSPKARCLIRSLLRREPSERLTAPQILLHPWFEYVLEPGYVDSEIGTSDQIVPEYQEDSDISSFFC

| Substance | binding (HA-tagged Nrf2) | binding (FLAG-tagged Trib1) |
| --- | --- | --- |
| FLAG-tagged Trib1 C-terminal domain (truncation mutant) (domain or fragment) | binds | – |
| HA-tagged Nrf2 C-terminal domain containing the NLS (truncation mutant) (domain or fragment) | – | binds |
| HA-tagged Nrf2 N-terminal domain (truncation mutant) (domain or fragment) | – | no binding |
| HA-tagged Nrf2 central domain (truncation mutant) (domain or fragment) | – | no binding |
